This assay deals with 3xFLAG-tagged ZNF507 (human) (UniProt Q8TCN5). Briefly: affinity purification with mass spectrometry; nuclear extract (500 mM NaCl, diluted with an equal amount of Dilution buffer) of HEK293 cells transfected with 3xFLAG-ZNF507 or empty vector; pre-cleared with Protein A dynabeads; anti-FLAG M2 magnetic beads 6 h at 4°C; washes in 20 mM Tris-HCl pH 7.5, 150 mM NaCl with 0.1% Triton X-100 and once without detergent; eluted with 3X-FLAG peptide; LC-MS/MS.

Sequences of proteins named here, by UniProt entry; tags and fusion partners are left off.
UniProt Q8TCN5: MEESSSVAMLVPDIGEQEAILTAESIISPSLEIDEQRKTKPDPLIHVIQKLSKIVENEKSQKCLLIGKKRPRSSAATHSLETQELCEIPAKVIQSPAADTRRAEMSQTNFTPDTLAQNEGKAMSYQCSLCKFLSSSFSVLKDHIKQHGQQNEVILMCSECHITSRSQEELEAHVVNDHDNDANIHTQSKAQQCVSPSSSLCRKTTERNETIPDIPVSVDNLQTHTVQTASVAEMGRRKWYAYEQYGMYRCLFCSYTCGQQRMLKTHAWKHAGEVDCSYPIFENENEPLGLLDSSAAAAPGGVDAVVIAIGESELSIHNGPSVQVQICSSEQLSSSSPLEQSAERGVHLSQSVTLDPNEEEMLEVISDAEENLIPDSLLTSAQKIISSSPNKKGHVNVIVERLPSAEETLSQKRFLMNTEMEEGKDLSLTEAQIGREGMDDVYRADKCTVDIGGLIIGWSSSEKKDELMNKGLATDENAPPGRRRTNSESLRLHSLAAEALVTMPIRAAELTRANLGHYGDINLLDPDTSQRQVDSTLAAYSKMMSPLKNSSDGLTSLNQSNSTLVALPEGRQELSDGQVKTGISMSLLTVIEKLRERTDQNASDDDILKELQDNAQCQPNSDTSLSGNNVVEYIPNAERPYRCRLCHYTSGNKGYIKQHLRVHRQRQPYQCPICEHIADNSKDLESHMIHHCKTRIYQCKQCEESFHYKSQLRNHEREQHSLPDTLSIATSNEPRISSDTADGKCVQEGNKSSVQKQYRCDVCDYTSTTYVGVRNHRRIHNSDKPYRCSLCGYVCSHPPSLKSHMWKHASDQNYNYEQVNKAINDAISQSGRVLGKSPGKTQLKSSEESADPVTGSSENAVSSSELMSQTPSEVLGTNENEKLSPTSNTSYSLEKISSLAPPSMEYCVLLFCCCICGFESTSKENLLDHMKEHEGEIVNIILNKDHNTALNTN
UniProt O14744: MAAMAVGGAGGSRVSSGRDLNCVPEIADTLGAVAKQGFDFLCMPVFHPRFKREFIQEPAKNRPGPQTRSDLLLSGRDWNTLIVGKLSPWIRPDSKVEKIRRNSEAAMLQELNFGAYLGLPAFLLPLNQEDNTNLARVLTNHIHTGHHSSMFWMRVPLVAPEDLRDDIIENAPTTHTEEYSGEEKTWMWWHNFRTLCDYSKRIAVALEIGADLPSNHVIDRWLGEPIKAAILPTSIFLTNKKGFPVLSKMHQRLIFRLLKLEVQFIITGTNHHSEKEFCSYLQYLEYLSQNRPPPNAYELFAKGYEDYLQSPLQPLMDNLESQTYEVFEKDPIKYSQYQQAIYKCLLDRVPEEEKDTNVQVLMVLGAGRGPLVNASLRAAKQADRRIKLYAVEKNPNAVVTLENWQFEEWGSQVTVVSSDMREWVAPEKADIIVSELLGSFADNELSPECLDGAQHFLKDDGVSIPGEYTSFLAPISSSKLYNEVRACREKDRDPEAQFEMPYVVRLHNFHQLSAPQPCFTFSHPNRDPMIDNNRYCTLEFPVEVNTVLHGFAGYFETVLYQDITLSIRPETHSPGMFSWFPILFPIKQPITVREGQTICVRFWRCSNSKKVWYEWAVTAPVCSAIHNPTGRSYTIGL

No constants are given. Whether binding was seen depends on the method and setting. In cells and extracts the contact can be indirect. Here binding means that the protein was enriched with, or labelled near, the bait; the list need not be complete.

“protein arginine methyltransferase 5 (from UniProt O14744 1-637) (enzyme)”: the binding result is “binds”.

The values are drawn from paper PMC8896011.
